Results are given in words; binding and its absence hold for the method and conditions named. Binding seen in cells or lysates may run through a third protein. Some binding calls cover weakened binding; strength is not graded here.

Chains of the proteins cited; added tags and fusions are not shown.
UniProt Q9UKV8: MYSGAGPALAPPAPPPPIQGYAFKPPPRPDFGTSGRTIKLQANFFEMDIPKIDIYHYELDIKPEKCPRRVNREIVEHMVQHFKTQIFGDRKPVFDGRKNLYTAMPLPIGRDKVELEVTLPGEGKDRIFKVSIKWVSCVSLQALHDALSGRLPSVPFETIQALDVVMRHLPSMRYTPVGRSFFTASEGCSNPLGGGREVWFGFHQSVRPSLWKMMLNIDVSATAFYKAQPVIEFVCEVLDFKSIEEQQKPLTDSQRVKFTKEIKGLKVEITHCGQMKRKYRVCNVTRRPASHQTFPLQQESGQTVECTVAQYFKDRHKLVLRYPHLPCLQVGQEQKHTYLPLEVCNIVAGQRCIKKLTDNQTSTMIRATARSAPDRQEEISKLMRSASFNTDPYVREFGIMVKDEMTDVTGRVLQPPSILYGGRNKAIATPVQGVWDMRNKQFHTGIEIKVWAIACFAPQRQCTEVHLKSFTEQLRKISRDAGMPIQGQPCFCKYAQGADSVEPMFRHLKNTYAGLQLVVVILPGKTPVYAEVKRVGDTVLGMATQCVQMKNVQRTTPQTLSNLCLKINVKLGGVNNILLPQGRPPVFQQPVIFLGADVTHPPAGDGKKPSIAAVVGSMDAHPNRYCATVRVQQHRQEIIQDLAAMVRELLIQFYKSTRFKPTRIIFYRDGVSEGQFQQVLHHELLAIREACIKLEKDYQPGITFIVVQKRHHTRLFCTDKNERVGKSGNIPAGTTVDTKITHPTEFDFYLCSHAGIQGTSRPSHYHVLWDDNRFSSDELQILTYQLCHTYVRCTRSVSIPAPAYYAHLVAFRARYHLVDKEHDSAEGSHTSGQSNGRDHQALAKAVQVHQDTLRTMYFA
UniProt Q8NDV7: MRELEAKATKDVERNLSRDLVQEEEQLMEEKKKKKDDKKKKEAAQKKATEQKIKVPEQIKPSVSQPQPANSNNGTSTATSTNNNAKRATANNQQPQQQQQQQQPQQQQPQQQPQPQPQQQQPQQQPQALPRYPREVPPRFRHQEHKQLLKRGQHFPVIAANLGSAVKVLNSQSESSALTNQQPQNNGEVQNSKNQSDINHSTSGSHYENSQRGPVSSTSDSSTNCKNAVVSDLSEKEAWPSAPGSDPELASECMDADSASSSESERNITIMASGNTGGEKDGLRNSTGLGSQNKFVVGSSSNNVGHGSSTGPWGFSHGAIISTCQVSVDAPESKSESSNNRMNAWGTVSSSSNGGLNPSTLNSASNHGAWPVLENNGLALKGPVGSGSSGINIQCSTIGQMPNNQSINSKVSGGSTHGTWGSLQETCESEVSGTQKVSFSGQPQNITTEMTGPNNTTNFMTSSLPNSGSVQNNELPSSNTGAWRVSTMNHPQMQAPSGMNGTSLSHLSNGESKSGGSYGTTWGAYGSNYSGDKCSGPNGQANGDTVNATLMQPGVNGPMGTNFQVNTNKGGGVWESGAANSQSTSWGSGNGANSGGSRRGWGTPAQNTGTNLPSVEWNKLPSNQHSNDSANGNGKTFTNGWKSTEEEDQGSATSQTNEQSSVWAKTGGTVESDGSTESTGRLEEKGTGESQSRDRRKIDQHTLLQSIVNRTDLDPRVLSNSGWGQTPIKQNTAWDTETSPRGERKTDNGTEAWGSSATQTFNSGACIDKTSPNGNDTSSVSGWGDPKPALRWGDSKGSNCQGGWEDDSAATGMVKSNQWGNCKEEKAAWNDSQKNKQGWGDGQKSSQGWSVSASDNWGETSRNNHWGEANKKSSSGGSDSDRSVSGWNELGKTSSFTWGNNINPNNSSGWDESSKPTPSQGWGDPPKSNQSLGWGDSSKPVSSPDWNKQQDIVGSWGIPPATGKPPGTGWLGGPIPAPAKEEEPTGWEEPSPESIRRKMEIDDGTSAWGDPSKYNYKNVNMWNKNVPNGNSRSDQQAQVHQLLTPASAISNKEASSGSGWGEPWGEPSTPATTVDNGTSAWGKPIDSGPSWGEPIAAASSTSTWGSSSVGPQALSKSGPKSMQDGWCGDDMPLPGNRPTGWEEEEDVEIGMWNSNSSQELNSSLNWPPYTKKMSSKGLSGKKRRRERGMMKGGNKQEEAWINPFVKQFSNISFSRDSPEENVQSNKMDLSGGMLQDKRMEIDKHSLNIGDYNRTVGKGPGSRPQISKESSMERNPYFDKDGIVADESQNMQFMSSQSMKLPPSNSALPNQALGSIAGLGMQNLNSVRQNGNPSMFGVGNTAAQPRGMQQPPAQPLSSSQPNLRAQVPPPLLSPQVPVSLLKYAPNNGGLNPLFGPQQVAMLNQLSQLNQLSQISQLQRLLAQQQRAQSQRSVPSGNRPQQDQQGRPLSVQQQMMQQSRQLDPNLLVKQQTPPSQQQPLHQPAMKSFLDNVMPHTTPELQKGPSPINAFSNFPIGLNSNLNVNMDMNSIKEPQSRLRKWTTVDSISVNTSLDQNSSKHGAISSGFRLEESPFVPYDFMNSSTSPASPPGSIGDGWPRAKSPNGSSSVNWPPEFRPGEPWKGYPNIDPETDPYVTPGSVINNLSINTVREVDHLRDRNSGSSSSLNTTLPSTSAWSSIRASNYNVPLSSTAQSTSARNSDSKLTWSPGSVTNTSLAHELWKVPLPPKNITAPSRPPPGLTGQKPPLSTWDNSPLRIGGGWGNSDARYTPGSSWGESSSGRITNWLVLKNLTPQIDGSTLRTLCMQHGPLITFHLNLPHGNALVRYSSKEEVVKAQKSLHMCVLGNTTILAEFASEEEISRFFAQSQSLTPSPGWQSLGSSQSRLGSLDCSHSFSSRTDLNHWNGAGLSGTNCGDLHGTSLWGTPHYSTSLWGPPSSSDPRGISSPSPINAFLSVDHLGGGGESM
UniProt Q9UPY3: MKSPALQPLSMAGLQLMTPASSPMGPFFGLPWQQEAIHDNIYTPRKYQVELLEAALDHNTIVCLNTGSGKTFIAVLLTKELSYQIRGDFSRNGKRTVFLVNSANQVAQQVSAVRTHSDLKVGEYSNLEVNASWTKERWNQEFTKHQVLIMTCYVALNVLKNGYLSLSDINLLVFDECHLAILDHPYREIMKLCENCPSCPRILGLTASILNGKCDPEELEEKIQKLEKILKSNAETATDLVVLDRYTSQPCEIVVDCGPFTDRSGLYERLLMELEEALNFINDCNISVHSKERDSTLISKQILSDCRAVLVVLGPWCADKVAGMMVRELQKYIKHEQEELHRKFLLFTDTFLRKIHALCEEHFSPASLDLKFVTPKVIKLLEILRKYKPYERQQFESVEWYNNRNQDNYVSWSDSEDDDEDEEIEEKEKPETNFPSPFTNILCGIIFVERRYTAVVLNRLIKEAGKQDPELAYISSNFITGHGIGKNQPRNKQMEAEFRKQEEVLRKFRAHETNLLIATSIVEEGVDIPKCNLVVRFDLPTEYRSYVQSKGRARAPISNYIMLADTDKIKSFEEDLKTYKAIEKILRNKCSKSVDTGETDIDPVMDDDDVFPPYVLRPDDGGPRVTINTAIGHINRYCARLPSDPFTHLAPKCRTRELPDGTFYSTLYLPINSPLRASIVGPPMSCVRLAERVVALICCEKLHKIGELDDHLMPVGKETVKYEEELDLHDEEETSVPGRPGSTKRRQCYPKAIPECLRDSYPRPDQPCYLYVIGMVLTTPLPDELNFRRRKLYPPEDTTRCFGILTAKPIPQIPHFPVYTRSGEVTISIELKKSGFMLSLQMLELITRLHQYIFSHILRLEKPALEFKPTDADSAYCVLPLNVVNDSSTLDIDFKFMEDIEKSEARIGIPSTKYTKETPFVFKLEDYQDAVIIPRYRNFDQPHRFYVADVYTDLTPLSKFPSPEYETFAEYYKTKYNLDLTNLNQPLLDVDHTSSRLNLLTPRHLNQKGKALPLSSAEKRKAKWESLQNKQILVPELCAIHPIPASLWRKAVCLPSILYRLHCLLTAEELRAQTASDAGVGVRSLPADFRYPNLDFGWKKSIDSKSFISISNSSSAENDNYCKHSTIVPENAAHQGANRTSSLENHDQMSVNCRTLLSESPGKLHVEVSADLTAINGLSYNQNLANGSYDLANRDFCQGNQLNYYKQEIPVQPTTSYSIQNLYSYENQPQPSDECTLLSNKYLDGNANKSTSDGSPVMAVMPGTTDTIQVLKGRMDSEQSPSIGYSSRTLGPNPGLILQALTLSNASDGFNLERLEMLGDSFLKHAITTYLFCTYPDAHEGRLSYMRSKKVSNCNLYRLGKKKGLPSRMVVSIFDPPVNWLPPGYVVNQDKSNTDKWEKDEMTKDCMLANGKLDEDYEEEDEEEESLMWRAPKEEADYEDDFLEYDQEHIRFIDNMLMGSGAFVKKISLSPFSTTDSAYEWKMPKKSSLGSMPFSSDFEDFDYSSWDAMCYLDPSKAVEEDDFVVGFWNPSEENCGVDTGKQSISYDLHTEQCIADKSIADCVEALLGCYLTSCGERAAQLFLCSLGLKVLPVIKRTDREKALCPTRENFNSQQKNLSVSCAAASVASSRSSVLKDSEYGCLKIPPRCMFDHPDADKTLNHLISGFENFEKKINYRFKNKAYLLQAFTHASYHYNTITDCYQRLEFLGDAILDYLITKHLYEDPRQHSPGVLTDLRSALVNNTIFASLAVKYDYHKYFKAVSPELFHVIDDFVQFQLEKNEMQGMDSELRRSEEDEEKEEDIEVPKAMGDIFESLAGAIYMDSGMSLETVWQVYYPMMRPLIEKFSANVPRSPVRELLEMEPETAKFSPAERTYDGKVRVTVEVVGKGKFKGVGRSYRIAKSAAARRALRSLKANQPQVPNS

The values that follow come from paper PMC12296108.

This experiment concerns the target Argonaute 2 (AGO2), untagged, endogenous in A549 WT and UnTagged clones (human (endogenous in A549)) (UniProt Q9UKV8). Put plainly: co-IP; endogenous co-immunoprecipitation from A549 lysates (WT, UT C1, UT C2, AGO2^HALO C5, AGO2^HALO C10); NP-40 buffer (150 mM NaCl, 50 mM Tris pH 8.0, 0.7% NP-40, 5% glycerol); 1 ug mouse IgA anti-AGO2 or IgA isotype control, 3 h at room temperature, Protein L beads; washed in PBS with 0.1% …; glycine pH 2.5 elution; Western blot for Dicer and TNRC6A.

Turning to TNRC6A (from UniProt Q8NDV7 1-1962), the binding entry is given as “binds”.
The result for “Dicer (from UniProt Q9UPY3 1-1922) (enzyme)” reads “binds”.
